The chains are these.
B1: SSBP1 (protein, UniProt Q04837 17-148)
chain: ESETTTSLVLERSLNRVHLLGRVGQDPVLRQVEGKNPVTIFSLATNEMWRSGDSEVYQLGDVSQKTTWHRISVFRPGLRDVAYQYVKKGSRIYLEGKIDYGEYMDKNNVRRQATTIIADNIIFLSDQTKEKE
B2: CIRBP (protein, UniProt Q14011 1-172)
chain: MASDEGKLFVGGLSFDTNEQSLEQVFSKYGQISEVVVVKDRETQRSRGFGFVTFENIDDAKDAMMAMNGKSVDGRQIRVDQAGKSSDNRSRGYRGGSAGGRGFFRGGRGRGRGFSRGGGDRGYGGNRFESRSGGYGGSRDYYSSRSQSGGYSDRSSGGSYRDSYDSYATHNE
B3: ATP5J2 (protein, UniProt P56134 1-94)
chain: MASVGECPAPVPVKDKKLLEVKLGELPSWILMRDFSPSGIFGAFQRGYYRYYNKYINVKKGSISGITMVLACYVLFSYSFSYKHLKHERLRKYH
B4: VGF (protein, UniProt O15240 23-615)
chain: APPGRPEAQPPPLSSEHKEPVAGDAVPGPKDGSAPEVRGARNSEPQDEGELFQGVDPRALAAVLLQALDRPASPPAPSGSQQGPEEEAAEALLTETVRSQTHSLPAPESPEPAAPPRPQTPENGPEASDPSEELEALASLLQELRDFSPSSAKRQQETAAAETETRTHTLTRVNLESPGPERVWRASWGEFQARVPERAPLPPPAPSQFQARMPDSGPLPETHKFGEGVSSPKTHLGEALAPLSKAYQGVAAPFPKARRPESALLGGSEAGERLLQQGLAQVEAGRRQAEATRQAAAQEERLADLASDLLLQYLLQGGARQRGLGGRGLQEAAEERESAREEEEAEQERRGGEERVGEEDEEAAEAEAEAEEAERARQNALLFAEEEDGEAGAEDKRSQEETPGHRRKEAEGTEEGGEEEDDEEMDPQTIDSLIELSTKLHLPADDVVSIIEEVEEKRKRKKNAPPEPVPPPRAAPAPTHVRSPQPPPPAPAPARDELPDWNEVLPPWDREEDEVYPPGPYHPFPNYIRPRTLQPPSALRRRHYHHALPPSRHYPGREAQARRAQEEAEAEERRLQEQEELENYIEHVLLRRP
B5: INA (protein, UniProt Q16352 1-499)
chain: MSFGSEHYLCSSSSYRKVFGDGSRLSARLSGAGGAGGFRSQSLSRSNVASSAACSSASSLGLGLAYRRPPASDGLDLSQAAARTNEYKIIRTNEKEQLQGLNDRFAVFIEKVHQLETQNRALEAELAALRQRHAEPSRVGELFQRELRDLRAQLEEASSARSQALLERDGLAEEVQRLRARCEEESRGREGAERALKAQQRDVDGATLARLDLEKKVESLLDELAFVRQVHDEEVAELLATLQASSQAAAEVDVTVAKPDLTSALREIRAQYESLAAKNLQSAEEWYKSKFANLNEQAARSTEAIRASREEIHEYRRQLQARTIEIEGLRGANESLERQILELEERHSAEVAGYQDSIGQLENDLRNTKSEMARHLREYQDLLNVKMALDIEIAAYRKLLEGEETRFSTSGLSISGLNPLPNPSYLLPPRILSATTSKVSSTGLSLKKEEEEEEASKVASKKTSQIGESFEEILEETVISTKKTEKSNIEETTISSQKI
B6: SART1 (protein, UniProt O43290 1-800)
chain: MGSSKKHRGEKEAAGTTAAAGTGGATEQPPRHREHKKHKHRSGGSGGSGGERRKRSRERGGERGSGRRGAEAEARSSTHGRERSQAEPSERRVKREKRDDGYEAAASSKTSSGDASSLSIEETNKLRAKLGLKPLEVNAIKKEAGTKEEPVTADVINPMALRQREELREKLAAAKEKRLLNQKLGKIKTLGEDDPWLDDTAAWIERSRQLQKEKDLAEKRAKLLEEMDQEFGVSTLVEEEFGQRRQDLYSARDLQGLTVEHAIDSFREGETMILTLKDKGVLQEEEDVLVNVNLVDKERAEKNVELRKKKPDYLPYAEDESVDDLAQQKPRSILSKYDEELEGERPHSFRLEQGGTADGLRERELEEIRAKLRLQAQSLSTVGPRLASEYLTPEEMVTFKKTKRRVKKIRKKEKEVVVRADDLLPLGDQTQDGDFGSRLRGRGRRRVSEVEEEKEPVPQPLPSDDTRVENMDISDEEEGGAPPPGSPQVLEEDEAELELQKQLEKGRRLRQLQQLQQLRDSGEKVVEIVKKLESRQRGWEEDEDPERKGAIVFNATSEFCRTLGEIPTYGLAGNREEQEELMDFERDEERSANGGSESDGEENIGWSTVNLDEEKQQQDFSASSTTILDEEPIVNRGLAAALLLCQNKGLLETTVQKVARVKAPNKSLPSAVYCIEDKMAIDDKYSRREEYRGFTQDFKEKDGYKPDVKIEYVDETGRKLTPKEAFRQLSHRFHGKGSGKMKTERRMKKLDEEALLKKMSSSDTPLGTVALLQEKQKAQKTPYIVLSGSGKSMNANTITK
B7: MYL12A (protein, UniProt P19105 1-171)
chain: MSSKRTKTKTKKRPQRATSNVFAMFDQSQIQEFKEAFNMIDQNRDGFIDKEDLHDMLASLGKNPTDEYLDAMMNEAPGPINFTMFLTMFGEKLNGTDPEDVIRNAFACFDEEATGTIQEDYLRELLTTMGDRFTDEEVDELYREAPIDKKGNFNYIEFTRILKHGAKDKDD

Protein sequences, listed by entry. Tags and fused reporters are not part of them.
UniProt O60260: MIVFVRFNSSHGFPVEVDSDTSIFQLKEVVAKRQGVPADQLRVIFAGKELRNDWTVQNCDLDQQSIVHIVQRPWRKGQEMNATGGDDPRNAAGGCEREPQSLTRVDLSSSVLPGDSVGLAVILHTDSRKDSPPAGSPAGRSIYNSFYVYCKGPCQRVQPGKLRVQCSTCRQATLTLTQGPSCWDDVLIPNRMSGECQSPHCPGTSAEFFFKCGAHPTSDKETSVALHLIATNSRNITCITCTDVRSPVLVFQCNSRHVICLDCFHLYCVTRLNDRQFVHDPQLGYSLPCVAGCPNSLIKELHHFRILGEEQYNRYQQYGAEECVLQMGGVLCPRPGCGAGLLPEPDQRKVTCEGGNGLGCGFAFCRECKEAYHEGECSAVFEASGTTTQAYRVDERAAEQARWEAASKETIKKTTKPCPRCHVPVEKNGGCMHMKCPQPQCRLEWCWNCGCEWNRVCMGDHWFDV

Results are given in words; binding and its absence hold for the method and conditions named. Binding seen in cells or lysates may run through a third protein. Here binding means that the protein was enriched with, or labelled near, the bait; the list need not be complete.

This test addresses TAP-tagged Parkin (human) (UniProt O60260). Briefly: affinity purification with mass spectrometry; tandem affinity purification (streptavidin resin, then calmodulin resin) of TAP-tagged Parkin from whole cell lysates of HEK293T and from mitochondrial and cytosolic fractions of HEK293T and SH-SY5Y cells, not treated or treated with valinomycin (1 uM) or CCCP (10 uM); 4°C; eluate identified by MS, two or more peptide matches.
B1: the binding result is “binds”.

B2: the binding result is recorded as “binds”.

In the case of B3, the binding entry was “binds”.

In the case of B4, the binding result is recorded as “binds”.

Take B5: the binding entry is “binds”.

With B6, the binding result is “binds”.

In the case of B7, the binding result is reported as “binds”.

These data come from PMC3823883.
